# Some of the results follow.
# Protein sequences, listed by entry. Tags and fused reporters are not part of them. Lines headed by an entry give the natural chain unless they say otherwise; changes in a name come on top.
# UniProt Q9UL45: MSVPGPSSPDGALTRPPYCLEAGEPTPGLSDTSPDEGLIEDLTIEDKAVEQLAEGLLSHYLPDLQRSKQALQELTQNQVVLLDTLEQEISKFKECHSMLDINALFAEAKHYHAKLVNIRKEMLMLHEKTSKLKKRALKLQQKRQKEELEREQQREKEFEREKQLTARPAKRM
# UniProt Q9NR09, whole entry, looked up: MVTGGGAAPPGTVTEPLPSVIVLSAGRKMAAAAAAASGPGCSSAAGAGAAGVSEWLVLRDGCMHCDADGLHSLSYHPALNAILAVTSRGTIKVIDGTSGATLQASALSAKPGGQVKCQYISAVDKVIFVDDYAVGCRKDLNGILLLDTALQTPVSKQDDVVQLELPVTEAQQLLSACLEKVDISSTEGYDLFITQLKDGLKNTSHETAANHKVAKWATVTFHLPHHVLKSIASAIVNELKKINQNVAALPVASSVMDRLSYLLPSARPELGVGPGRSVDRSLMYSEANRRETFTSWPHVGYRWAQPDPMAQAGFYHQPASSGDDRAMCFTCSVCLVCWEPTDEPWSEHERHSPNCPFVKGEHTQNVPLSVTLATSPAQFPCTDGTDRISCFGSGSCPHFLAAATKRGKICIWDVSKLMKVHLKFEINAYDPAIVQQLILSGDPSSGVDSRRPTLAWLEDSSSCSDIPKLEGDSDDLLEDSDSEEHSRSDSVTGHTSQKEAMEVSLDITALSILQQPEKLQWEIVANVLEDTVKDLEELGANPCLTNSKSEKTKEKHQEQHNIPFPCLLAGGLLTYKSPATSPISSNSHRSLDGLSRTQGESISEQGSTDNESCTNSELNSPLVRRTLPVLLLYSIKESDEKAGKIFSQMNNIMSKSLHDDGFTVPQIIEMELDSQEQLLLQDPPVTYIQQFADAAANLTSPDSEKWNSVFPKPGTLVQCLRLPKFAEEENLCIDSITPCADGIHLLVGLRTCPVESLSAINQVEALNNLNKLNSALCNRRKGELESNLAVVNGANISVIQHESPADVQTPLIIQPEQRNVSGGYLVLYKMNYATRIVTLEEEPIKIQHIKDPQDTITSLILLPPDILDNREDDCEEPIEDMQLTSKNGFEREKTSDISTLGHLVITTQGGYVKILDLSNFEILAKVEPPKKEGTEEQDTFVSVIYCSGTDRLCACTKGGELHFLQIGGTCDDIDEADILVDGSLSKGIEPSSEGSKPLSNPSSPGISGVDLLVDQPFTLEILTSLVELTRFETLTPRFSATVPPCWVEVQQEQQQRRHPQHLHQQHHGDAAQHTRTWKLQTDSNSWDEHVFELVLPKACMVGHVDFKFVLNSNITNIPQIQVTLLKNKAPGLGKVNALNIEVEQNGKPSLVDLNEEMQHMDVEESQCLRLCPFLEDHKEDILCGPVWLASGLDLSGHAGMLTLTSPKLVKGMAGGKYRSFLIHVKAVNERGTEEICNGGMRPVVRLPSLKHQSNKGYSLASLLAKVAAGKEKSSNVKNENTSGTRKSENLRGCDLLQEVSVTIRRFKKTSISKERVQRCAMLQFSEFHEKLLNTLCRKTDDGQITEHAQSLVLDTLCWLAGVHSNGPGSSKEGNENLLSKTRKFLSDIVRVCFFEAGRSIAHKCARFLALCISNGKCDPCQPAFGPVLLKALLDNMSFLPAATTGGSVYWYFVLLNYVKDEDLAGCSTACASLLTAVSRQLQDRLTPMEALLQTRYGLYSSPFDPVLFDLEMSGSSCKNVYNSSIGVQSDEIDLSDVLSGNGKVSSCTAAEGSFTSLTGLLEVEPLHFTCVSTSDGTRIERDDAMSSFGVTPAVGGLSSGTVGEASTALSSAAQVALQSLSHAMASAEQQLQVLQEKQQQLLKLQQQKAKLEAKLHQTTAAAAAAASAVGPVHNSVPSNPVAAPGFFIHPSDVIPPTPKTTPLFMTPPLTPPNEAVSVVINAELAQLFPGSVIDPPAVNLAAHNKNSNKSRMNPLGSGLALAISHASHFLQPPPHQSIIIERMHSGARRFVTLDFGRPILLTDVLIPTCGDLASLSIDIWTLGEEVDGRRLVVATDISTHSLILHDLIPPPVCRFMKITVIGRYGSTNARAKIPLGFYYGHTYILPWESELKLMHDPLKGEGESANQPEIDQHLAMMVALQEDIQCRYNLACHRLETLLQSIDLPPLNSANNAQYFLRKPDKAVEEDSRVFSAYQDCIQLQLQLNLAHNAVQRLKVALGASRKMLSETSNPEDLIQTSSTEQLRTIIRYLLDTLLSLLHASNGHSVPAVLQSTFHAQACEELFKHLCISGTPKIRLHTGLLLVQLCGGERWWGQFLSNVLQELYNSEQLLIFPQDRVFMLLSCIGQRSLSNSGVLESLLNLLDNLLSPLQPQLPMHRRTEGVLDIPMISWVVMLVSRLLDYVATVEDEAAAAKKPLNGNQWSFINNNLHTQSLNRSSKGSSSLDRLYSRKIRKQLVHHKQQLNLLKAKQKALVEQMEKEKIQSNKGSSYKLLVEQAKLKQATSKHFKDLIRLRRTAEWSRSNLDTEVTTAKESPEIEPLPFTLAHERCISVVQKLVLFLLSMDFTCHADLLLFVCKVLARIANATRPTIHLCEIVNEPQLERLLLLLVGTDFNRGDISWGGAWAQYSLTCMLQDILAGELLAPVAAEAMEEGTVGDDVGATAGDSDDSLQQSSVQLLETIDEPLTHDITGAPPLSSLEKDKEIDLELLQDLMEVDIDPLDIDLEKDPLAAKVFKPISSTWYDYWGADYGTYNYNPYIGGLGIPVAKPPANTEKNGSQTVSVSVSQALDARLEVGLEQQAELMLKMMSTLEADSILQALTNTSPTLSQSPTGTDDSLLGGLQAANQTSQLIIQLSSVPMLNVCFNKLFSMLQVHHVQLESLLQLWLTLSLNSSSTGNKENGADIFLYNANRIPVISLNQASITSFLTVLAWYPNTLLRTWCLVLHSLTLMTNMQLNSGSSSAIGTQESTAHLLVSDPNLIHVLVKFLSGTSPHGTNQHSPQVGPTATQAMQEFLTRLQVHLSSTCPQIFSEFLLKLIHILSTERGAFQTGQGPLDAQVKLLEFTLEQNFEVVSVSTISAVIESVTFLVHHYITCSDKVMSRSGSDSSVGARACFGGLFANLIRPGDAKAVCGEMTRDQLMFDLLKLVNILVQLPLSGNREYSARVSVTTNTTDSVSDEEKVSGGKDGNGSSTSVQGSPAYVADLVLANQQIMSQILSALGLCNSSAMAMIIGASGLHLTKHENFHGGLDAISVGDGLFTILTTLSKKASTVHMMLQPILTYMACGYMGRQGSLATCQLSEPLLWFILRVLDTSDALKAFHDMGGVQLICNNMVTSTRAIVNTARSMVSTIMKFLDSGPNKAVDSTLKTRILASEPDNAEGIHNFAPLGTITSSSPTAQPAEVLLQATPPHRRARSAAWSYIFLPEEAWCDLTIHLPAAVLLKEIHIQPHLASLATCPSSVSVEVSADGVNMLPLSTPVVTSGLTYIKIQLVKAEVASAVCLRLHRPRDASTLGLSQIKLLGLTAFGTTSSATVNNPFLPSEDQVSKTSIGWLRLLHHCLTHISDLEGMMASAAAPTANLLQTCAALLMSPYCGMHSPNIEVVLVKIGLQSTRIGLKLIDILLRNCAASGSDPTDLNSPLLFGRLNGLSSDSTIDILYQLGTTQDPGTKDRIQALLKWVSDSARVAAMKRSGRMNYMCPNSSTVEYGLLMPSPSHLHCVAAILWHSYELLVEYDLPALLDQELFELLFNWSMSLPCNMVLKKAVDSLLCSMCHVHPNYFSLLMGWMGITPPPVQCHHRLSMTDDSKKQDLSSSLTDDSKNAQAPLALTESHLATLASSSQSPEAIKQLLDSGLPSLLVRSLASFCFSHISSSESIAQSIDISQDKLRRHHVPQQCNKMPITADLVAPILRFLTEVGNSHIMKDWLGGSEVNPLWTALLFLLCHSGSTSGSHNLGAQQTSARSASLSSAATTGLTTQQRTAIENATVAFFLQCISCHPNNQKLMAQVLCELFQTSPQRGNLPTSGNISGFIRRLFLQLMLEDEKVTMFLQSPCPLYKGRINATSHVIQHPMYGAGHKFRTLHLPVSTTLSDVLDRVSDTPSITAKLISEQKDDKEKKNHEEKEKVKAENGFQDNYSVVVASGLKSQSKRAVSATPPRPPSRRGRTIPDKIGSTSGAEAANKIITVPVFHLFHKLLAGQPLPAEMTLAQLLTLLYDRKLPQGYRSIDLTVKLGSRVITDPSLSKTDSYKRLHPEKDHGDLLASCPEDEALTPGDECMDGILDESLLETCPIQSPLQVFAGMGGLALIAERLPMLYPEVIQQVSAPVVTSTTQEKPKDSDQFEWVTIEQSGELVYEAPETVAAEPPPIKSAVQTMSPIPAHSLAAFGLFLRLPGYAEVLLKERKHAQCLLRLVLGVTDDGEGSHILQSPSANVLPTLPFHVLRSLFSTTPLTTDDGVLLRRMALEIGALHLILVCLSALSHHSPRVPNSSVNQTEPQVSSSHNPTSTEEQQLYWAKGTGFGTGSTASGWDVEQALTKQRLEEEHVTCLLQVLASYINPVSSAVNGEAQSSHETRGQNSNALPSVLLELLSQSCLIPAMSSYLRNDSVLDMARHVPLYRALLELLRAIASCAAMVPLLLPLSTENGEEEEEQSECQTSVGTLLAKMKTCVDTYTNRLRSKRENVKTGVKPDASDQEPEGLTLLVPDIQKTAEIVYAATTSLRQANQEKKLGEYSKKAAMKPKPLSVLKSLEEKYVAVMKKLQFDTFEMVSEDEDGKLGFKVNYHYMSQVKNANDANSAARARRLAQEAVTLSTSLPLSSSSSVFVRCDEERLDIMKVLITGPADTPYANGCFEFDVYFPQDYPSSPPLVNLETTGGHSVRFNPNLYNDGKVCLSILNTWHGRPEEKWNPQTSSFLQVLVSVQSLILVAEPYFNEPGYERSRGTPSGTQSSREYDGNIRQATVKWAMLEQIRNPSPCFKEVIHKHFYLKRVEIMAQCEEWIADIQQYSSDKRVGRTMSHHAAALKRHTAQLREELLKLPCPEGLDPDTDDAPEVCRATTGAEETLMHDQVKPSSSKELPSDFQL
# UniProt Q9NRL2: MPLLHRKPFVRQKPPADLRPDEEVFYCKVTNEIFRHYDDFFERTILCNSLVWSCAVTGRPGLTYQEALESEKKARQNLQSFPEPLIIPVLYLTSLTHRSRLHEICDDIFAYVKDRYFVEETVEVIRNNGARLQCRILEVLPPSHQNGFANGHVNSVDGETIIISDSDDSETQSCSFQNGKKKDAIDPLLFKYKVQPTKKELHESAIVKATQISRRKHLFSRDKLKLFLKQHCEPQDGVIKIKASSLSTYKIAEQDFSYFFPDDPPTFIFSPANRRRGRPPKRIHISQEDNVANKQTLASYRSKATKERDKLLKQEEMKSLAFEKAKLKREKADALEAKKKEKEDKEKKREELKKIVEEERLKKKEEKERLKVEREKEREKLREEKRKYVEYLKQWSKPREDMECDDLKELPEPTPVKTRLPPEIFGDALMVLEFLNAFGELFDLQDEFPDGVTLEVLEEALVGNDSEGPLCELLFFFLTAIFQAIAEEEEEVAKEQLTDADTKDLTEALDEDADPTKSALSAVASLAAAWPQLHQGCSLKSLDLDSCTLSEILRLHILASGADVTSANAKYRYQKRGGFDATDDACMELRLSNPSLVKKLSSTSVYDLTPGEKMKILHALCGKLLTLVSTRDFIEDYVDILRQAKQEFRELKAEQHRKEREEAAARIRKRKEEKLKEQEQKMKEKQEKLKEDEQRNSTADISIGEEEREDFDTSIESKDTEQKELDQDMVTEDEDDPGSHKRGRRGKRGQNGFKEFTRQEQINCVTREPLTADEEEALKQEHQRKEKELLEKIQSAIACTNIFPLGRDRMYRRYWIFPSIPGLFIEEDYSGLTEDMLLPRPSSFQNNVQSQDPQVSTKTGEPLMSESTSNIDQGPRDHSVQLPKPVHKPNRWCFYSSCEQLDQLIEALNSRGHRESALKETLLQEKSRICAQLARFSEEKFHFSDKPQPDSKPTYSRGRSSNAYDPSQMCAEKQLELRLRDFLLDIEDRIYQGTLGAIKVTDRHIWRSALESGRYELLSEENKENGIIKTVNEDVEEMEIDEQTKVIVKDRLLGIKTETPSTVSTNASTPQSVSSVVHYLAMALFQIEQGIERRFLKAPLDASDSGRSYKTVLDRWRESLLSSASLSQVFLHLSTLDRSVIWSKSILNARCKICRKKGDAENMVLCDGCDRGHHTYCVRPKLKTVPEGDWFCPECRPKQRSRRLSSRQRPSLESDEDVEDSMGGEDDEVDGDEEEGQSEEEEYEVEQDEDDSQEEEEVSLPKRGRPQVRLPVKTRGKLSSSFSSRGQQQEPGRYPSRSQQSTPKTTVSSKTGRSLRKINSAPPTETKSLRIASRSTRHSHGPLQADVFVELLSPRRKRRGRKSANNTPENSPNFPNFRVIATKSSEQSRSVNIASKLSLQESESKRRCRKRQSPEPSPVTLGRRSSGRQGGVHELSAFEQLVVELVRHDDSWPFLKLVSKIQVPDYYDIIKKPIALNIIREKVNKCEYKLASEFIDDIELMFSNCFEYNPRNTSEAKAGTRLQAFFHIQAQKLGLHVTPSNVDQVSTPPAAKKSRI
# Compound: Cc1cc(ccc1-c1ccccc1)C(=O)N1CCCN(CC1)C(=O)CCl [compound 10]
# Assay: probe-labelled cysteine peptide fold change vs DMSO (competition) (log2 fold change); higher = less target engagement (more negative = stronger competition)
# Details: THP-1, incubation time: 4 h
# 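Note: competitive profiling in live THP-1 cells: cysteine peptides tagged with an iodoacetamide desthiobiotin (IA-DTB) probe, intensity after compound treatment relative to DMSO-treated cells.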
target,measurement,setting,value
BLOC1S6_Q9UL45_95_ECHSMLDINALFAEAK (UniProt Q9UL45),probe-labelled cysteine peptide fold change,10 µM,0.0555
same,probe-labelled cysteine peptide fold change,50 µM,-0.138
BRAP_Q7Z569_221_AQADADSFYMTCNGR (UniProt Q7Z569),probe-labelled cysteine peptide fold change,10 µM,0.13
same,probe-labelled cysteine peptide fold change,50 µM,0.0989
BLM_P54132_799_FVIDEAHCVSQWGHDFR (UniProt P54132),probe-labelled cysteine peptide fold change,10 µM,0.0276
same,probe-labelled cysteine peptide fold change,50 µM,0.0804
BIRC6_Q9NR09_381_GEHTQNVPLSVTLATSPAQFPCTDGTDR (UniProt Q9NR09),probe-labelled cysteine peptide fold change,10 µM,-0.0316
same,probe-labelled cysteine peptide fold change,50 µM,-0.166
BANF1_O75531_80_DCFGCLR (UniProt O75531),probe-labelled cysteine peptide fold change,10 µM,0.231
same,probe-labelled cysteine peptide fold change,50 µM,-0.00332
BAZ1A_Q9NRL2_232_QHCEPQDGVIK (UniProt Q9NRL2),probe-labelled cysteine peptide fold change,10 µM,-0.17
same,probe-labelled cysteine peptide fold change,50 µM,-0.0315
BAZ1A_Q9NRL2_105_LHEICDDIFAYVK (UniProt Q9NRL2),probe-labelled cysteine peptide fold change,10 µM,0.0565
same,probe-labelled cysteine peptide fold change,50 µM,0.118
BAZ1B_Q9UIG0_120_YAVGEECDFEVGK (UniProt Q9UIG0),probe-labelled cysteine peptide fold change,10 µM,-0.106
same,probe-labelled cysteine peptide fold change,50 µM,0.0768
BIRC6_Q9NR09_390_ISCFGSGSCPHFLAAATK (UniProt Q9NR09),probe-labelled cysteine peptide fold change,10 µM,0.0714
same,probe-labelled cysteine peptide fold change,50 µM,-0.0238
BICRA_Q9NZM4_1382_KPLGTAPHCPR (UniProt Q9NZM4),probe-labelled cysteine peptide fold change,10 µM,-0.0185
same,probe-labelled cysteine peptide fold change,50 µM,0.223
AZU1_P20160_149_CQVAGWGSQR (UniProt P20160),probe-labelled cysteine peptide fold change,10 µM,-0.188
same,probe-labelled cysteine peptide fold change,50 µM,-0.0803
ATXN10_Q9UBB4_65_SSHAVELACRDPSQVENLASSLQLITECFR (UniProt Q9UBB4),probe-labelled cysteine peptide fold change,10 µM,-0.202
same,probe-labelled cysteine peptide fold change,50 µM,-0.0972
BCR_P11274_886_SFSLTSVELQMLTNSCVK (UniProt P11274),probe-labelled cysteine peptide fold change,10 µM,-0.0235
same,probe-labelled cysteine peptide fold change,50 µM,-0.0491
BPNT1_O95861_249_WDTCAPEVILHAVGGK (UniProt O95861),probe-labelled cysteine peptide fold change,10 µM,-0.0743
same,probe-labelled cysteine peptide fold change,50 µM,0.181

# Two records picked at random from those above:
target,measurement,setting,value
BPNT1_O95861_249_WDTCAPEVILHAVGGK (UniProt O95861),probe-labelled cysteine peptide fold change,50 µM,0.181
BIRC6_Q9NR09_381_GEHTQNVPLSVTLATSPAQFPCTDGTDR (UniProt Q9NR09),probe-labelled cysteine peptide fold change,10 µM,-0.0316

# From the supplement of paper PMC12067093, “Discovery and optimisation of a covalent ligand for TRIM25 and its application to targeted protein ubiquitination” (Chemical Science, 2025)
